Measurements as given in the supplement of paper PMC12873370.
Values joined by “and” are separate entries in the source; they are usually repeats but may differ in a detail not shown here. Identical values can stand only once. The list shows a part of the results. Repeats are few or missing, and single values can be far off.

Legend:
[1] = tested on: MEPP (mouse ovarian epithelium Trp53/Pten KO); test: cell viability relative to untreated (fraction); higher = less growth inhibition; conditions: 5 µM; 3 days
[2] = tested on: PREPP (mouse prostate epithelium Trp53/Pten KO); test: as above; conditions: 5 µM; 3 days

CC(C)=CCC/C(C)=C/CC/C(C)=C/CC/C=C(\C)CC/C=C(\C)CCC=C(C)C showed a cell viability [1] of 1.32 and a cell viability [2] of 0.936.
With CC(C)=CC(=O)O the cell viability [1] was 0.937 and the cell viability [2] was 1.
For CN[C@@H]1[C@H](O)[C@H](NC)[C@H]2O[C@@]3(O)C(=O)C[C@@H](C)O[C@H]3O[C@@H]2[C@H]1O, the cell viability [1] was 0.81 and 0.854 and the cell viability [2] was 0.989 and 0.908.
With CCn1cc(C(=O)O)c(=O)c2cc(F)c(N3CCN(C)CC3)cc21 the cell viability [1] was 0.875 and the cell viability [2] was 0.892.
In the case of CCN1CCN(C(=O)N[C@@H](C(=O)N[C@@H]2C(=O)N3[C@@H]2SC(C)(C)[C@@H]3C(=O)O)c2ccccc2)C(=O)C1=O, the cell viability [1] is reported as 1.21 and the cell viability [2] is reported as 0.866.
With NC(=O)NC(CC(=O)O)C(=O)O (centres undefined) the cell viability [1] was 0.876 and the cell viability [2] was 1.05.
COc1ccc(-c2oc3c(CC=C(C)C)c(O[C@@H]4O[C@H](CO)[C@@H](O)[C@H](O)[C@H]4O)cc(O)c3c(=O)c2O[C@@H]2O[C@@H](C)[C@H](O)[C@@H](O)[C@H]2O)cc1 gave a cell viability [1] of 1.05 and a cell viability [2] of 0.929.
NC(=O)N1c2ccccc2CC(=O)c2ccccc21 was tested, and the cell viability [1] was 0.85 and the cell viability [2] was 0.875.
N[C@@H](CCC(=O)O)C(=O)O showed a cell viability [1] of 1.13 and a cell viability [2] of 1.01.
CC[C@H]1OC(=O)C[C@@H](O)[C@H](C)[C@@H](O[C@@H]2O[C@H](C)[C@@H](O)[C@H](N(C)C)[C@H]2O)[C@@H](CCN2C[C@H](C)C[C@H](C)C2)C[C@@H](C)C(=O)/C=C/C(C)=C/[C@@H]1CO[C@@H]1O[C@H](C)[C@@H](O)[C@@H](OC)[C@H]1OC showed a cell viability [1] of 0.994 and a cell viability [2] of 0.899.
CC(C)(O)C(=O)O was tested, and the cell viability [1] was 1.01 and the cell viability [2] was 0.87.
Nc1nc2[nH]cc(CCc3ccc(C(=O)N[C@@H](CCC(=O)O)C(=O)O)cc3)c2c(=O)[nH]1 gave a cell viability [1] of 0.833 and a cell viability [2] of 0.64.
